According to publication PMC5058472:
Results are given in words; binding and its absence hold for the method and conditions named.

What was measured:
[1] = biological target: human NLRP1(227–990), NACHT-LRR fragment (human) (UniProt Q9C000); assay: SEC-SAXS; in-line 2.4 mL Superdex S200 column, beamline B21 at Diamond; samples at 2 mg/mL and 6 mg/mL; 25 mM MES pH 6.0, 500 mM NaCl, 5 mM MgSO4, 1 mM TCEP; 25°C; molecular weight derived from SAXS by three methods; both purified
[2] = biological target: human NLRP1(227–990), NACHT-LRR fragment (human) (UniProt Q9C000); assay: SEC; Superdex S200 XK16/60 column; single peak with an apparent molecular weight between 44 and 158 kDa; 25 mM MES pH 6.0, 200 mM NaCl, 5 mM MgCl2, 2 mM DTT; both purified
[3] = biological target: human NLRP1(227–990), NACHT-LRR fragment (human) (UniProt Q9C000); assay: SEC; Superose 6 10/300 column; protein 0.5 mg/mL alone, with 0.2 mg/mL MDP and 1 mM ATP, or with MDP and 1 mM ATPγS; incubated at room temperature for about 3–4 hours before loading; both purified

B1: human NLRP1(227–990), NACHT-LRR fragment (domain or fragment, UniProt Q9C000 227-990)
chain: SEKGRPPWAAVVGTPPQAHTSLQPHHHPWEPSVRESLCSTWPWKNEDFNQKFTQLLLLQRPHPRSQDPLVKRSWPDYVEENRGHLIEIRDLFGPGLDTQEPRIVILQGAAGIGKSTLARQVKEAWGRGQLYGDRFQHVFYFSCRELAQSKVVSLAELIGKDGTATPAPIRQILSRPERLLFILDGVDEPGWVLQEPSSELCLHWSQPQPADALLGSLLGKTILPEASFLITARTTALQNLIPSLEQARWVEVLGFSESSRKEYFYRYFTDERQAIRAFRLVKSNKELWALCLVPWVSWLACTCLMQQMKRKEKLTLTSKTTTTLCLHYLAQALQAQPLGPQLRDLCSLAAEGIWQKKTLFSPDDLRKHGLDGAIISTFLKMGILQEHPIPLSYSFIHLCFQEFFAAMSYVLEDEKGRGKHSNCIIDLEKTLEAYGIHGLFGASTTRFLLGLLSDEGEREMENIFHCRLSQGRNLMQWVPSLQLLLQPHSLESLHCLYETRNKTFLTQVMAHFEEMGMCVETDMELLVCTFCIKFSRHVKKLQLIEGRQHRSTWSPTMVVLFRWVPVTDAYWQILFSVLKVTRNLKELDLSGNSLSHSAVKSLCKTLRRPRCLLETLRLAGCGLTAEDCKDLAFGLRANQTLTELDLSFNVLTDAGAKHLCQRLRQPSCKLQRLQLVSCGLTSDCCQDLASVLSASPSLKELDLQQNNLDDVGVRLLCEGLRHPACKLIRLGLDQTTLSDEMRQELRALEQEKPQLLIFSRRKPS
With B1 the binding [1] was “no binding (tested: 6 mg/mL)”, the binding [2] was “no binding” and the binding [3] was “no binding (tested: 0.5 mg/mL)”.
